Data as given in publication PMC11476176.
No constants are given. Whether binding was seen depends on the method and setting. In cells and extracts the contact can be indirect. Tags and fused reporters may be left off the sequences shown.

Amino acid sequences for entries named in this document (tags omitted).
UniProt Q14247: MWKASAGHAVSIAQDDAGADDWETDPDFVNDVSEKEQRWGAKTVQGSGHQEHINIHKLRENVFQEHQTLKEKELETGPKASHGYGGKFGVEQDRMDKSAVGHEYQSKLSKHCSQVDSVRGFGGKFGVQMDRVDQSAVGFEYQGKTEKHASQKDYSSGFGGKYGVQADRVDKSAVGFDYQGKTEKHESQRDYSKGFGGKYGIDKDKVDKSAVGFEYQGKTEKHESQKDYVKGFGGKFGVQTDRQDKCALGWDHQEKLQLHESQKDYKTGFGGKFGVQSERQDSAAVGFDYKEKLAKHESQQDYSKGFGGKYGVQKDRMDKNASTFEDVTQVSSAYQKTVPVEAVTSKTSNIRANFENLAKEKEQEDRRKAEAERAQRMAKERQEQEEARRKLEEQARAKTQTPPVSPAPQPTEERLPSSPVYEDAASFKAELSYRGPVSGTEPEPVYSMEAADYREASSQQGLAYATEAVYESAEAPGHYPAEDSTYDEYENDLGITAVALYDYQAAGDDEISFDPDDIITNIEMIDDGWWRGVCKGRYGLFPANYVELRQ

Target: T1, myc-AAMP (Angio-associated migratory cell protein) (human) (UniProt Q13685)
T1 sequence: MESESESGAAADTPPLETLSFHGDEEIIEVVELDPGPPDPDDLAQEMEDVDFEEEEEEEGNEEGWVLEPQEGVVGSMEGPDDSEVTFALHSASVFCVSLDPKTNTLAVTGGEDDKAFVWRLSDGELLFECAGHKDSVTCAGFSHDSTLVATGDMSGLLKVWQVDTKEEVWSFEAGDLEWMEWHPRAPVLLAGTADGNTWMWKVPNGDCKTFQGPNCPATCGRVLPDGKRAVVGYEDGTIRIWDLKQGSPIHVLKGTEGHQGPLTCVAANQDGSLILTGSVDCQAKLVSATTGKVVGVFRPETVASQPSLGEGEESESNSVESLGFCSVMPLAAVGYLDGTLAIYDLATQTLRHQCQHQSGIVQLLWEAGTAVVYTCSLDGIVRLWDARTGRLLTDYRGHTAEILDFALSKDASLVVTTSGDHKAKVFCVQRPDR
Experiment: co-IP; myc-co-IP from HUVECs transduced with AAMP lentivirus and treated with doxycycline for 24 h; Western blot of the precipitate

- binding: no binding
Substance: cortactin (from UniProt Q14247 1-550)
